Measured values published in PubChem BioAssay AID1347426 (Functional Genomics Laboratory (NCATS/FGL), 2020).
The campaign covered roughly 31,000 sequences. About 1,400 (4.5%) were called active.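 Rule for the calls: active = median seed-adjusted z-score above 1 or below -1; inactive = the rest.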 This is one part of the list.

Assay: Novel Modifiers of Survival Motor Neuron (SMN) Protein: Gene Identification via Genome-wide siRNA Screen;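 note: luminescence tracks full-length SMN protein made from the SMN2 reporter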
Conditions: HEK293T SMN2-luciferase reporter, siRNA knockdown, 72 h; actives lie on both sides
How it was run: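 HEK293T cells stably expressing an SMN2 splicing/cDNA-luciferase reporter were reverse-transfected with a druggable-genome siRNA library and read by luminescence at 72 hours; hits defined by MAD score above 1.0 or below -1.0.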
With GCAUGAUUGUUUCAAGUCATT against TWIST2 the median seed-adjusted z-score was inactive: 0.363. For “AGCAACUACUGGAAAUUUUTT against ST6GALNAC2”, the median seed-adjusted z-score was inactive: 0. For CAGUGGAAUGAAUUCAGUUTT against CDC42SE2, the median seed-adjusted z-score was inactive: 0.381. In the case of GGAGGACUCGUUAUCUGUATT against KLF12, the median seed-adjusted z-score is reported as inactive: -0.0892. With GGAGGUCACAAAAUUAGCATT against AKR1C3 the median seed-adjusted z-score was inactive: -0.00538. For GCGACGAAGUGCUACGAAATT against ITGA2, the median seed-adjusted z-score was inactive: 0.106. For CUACGACUGUGACAACCCATT against GRIN2B, the median seed-adjusted z-score was inactive: 0.0402. In the case of GGAUUCAGCUCGUUACCAUTT against TWF1, the median seed-adjusted z-score is reported as inactive: -0.171. In the case of CGAGACAAGACGCAGCUUUTT against LDLRAD2, the median seed-adjusted z-score is reported as inactive: -0.459. For CAGCAUUCUUGUAAACGGATT against EPS15, the median seed-adjusted z-score was inactive: -0.478. With GCAGGGUUAGCAUAAAGGATT against MOBKL3 the median seed-adjusted z-score was inactive: 0.575. For CGAAGGGAAUUUCCACUAUTT against REN, the median seed-adjusted z-score was inactive: -0.48. In the case of GCAGACAGGUCAAAUCUGATT against SNAI2, the median seed-adjusted z-score is reported as inactive: 0. In the case of GCCUUGUGCCGUGCACUAUTT against CHST14, the median seed-adjusted z-score is reported as inactive: 0.228. For GGCAGAACCUAUACCAGAATT against MED6, the median seed-adjusted z-score was active: -2.15. For CGGACAGGGUCUACAUCAATT against MIF, the median seed-adjusted z-score was inactive: 0.214. In the case of GGACAUCGAAAAGUUAGUATT against MX2, the median seed-adjusted z-score is reported as inactive: -0.0346. In the case of GUAUUGCGGUGAUCAAAUATT against ZNF589, the median seed-adjusted z-score is reported as inactive: -0.0897. With GGUUCCUCCAUUCAGCUUATT against TRIM74 the median seed-adjusted z-score was inactive: 0.0932. In the case of AGCCUUUAGUGUCCGUUCATT against ZNF347, the median seed-adjusted z-score is reported as inactive: 0. In the case of GGACGAAUGAGUUCCAGUUTT against PCDHB8, the median seed-adjusted z-score is reported as active: 1.15. With GUUCUUCAGUGACGCCCGATT against SPTBN4 the median seed-adjusted z-score was inactive: -0.0625. With GCCUUAGUGUGCCUCCCAATT against APLN the median seed-adjusted z-score was inactive: 0.0181. With GCAGGAUGAUCUCAAGUAUTT against MOBKL2B the median seed-adjusted z-score was inactive: -0.613. In the case of GCGUGAAUGAUAAAGGGCUTT against DPP4, the median seed-adjusted z-score is reported as inactive: 0.0394. In the case of GUUGCACGAUGGGAACACATT against PEMT, the median seed-adjusted z-score is reported as inactive: 0.0218. For GCAUCAUGUUUAUUGCGAATT against ABCB11, the median seed-adjusted z-score was inactive: 0.14. With GAAGGACUAUCACAUCGAATT against HAAO the median seed-adjusted z-score was inactive: 0.214. In the case of GAACGUACUCUUGCUUAUATT against ATP6V1D, the median seed-adjusted z-score is reported as inactive: 0.594. In the case of CACUGACUCGGAAACUGCATT against IGF2BP3, the median seed-adjusted z-score is reported as inactive: -0.636. With CGGACAUGGUGGAAUCAGUTT against VAT1 the median seed-adjusted z-score was inactive: -0.744. For GACACUAUCUUGCUAGGCATT against UTY, the median seed-adjusted z-score was inactive: -0.538. With GCGGGUUACUUUUUGGGCATT against SLC33A1 the median seed-adjusted z-score was inactive: 0.2. For CGAGUUCUGUAUACUCUAATT against GABRG1, the median seed-adjusted z-score was inactive: 0.312. With CCGAGGAUCUGUCCACCAATT against ZNF366 the median seed-adjusted z-score was inactive: 0.585. In the case of CAGCUACUUUCAUACAGCATT against PKP2, the median seed-adjusted z-score is reported as inactive: -0.0809. With CAUAAGGUCUUUGAAGGAATT against GPI the median seed-adjusted z-score was inactive: -0.122. For CCAUCACGUUCAUUACCUUTT against GAN, the median seed-adjusted z-score was active: -1.07. With GGACUAAAUAGGAAUAGUUTT against PDE3B the median seed-adjusted z-score was inactive: -0.0475. With CCAUCUACAUCAGAGUCCATT against BTN1A1 the median seed-adjusted z-score was inactive: 0.291. For GCAGAGAUCUUAUUGCAUATT against DNMT3L, the median seed-adjusted z-score was inactive: 0.0651. With GACUAUCAAUUCACAUGAATT against OMG the median seed-adjusted z-score was inactive: 0.273. In the case of CCAAUAGCAGUUACCCAAATT against SMAD1, the median seed-adjusted z-score is reported as inactive: -0.0282. With GGCACGAGGUCAUCUCUUUTT against ZNF557 the median seed-adjusted z-score was inactive: -0.197. In the case of CAAACUUGGACUUUCCAAATT against MAP2K1IP1, the median seed-adjusted z-score is reported as inactive: 0.333. In the case of AAAUCCUUGGGUCAACAUUTT against NOX1, the median seed-adjusted z-score is reported as inactive: -0.221. In the case of CCAAUUCACCCACUCCCUUTT against AQP1, the median seed-adjusted z-score is reported as inactive: 0.274. For AAGUGAAGAUGGUCUUUGATT against VIPR1, the median seed-adjusted z-score was inactive: 0.168. With AGCACCUCGUGAACCACUATT against KCTD7 the median seed-adjusted z-score was inactive: 0.484. For CAAUGAAGAAUCGAAUGAATT against IBSP, the median seed-adjusted z-score was inactive: -0.111. With GCGACUUUCCUAAGACCUUTT against MEF2B the median seed-adjusted z-score was inactive: 0.263. In the case of GGAGAGUGGUGAUCGGAUATT against MYOM3, the median seed-adjusted z-score is reported as inactive: -0.012. With GCUACGCUUUGGAAUCUAUTT against CPNE1 the median seed-adjusted z-score was inactive: -0.0206.
